According to article PMC3534379:
Results are given in words; binding and its absence hold for the method and conditions named. Binding seen in cells or lysates may run through a third protein.

Protein sequences, listed by entry. Tags and fused reporters are not part of them. Residues count along the entry.
UniProt Q10589, residues 1-161: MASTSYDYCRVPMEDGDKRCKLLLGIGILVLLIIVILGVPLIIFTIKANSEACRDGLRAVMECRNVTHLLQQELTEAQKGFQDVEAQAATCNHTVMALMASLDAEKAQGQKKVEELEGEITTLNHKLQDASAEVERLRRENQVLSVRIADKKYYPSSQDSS
UniProt Q1A244: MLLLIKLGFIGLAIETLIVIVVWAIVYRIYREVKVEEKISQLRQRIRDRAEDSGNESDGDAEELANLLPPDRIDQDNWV

Molecular target: human tetherin fused to the C-terminal fragment of Kusabira green (KGC) (human) (UniProt Q10589)
Assay: split reporter; Kusabira green BiFC: KGN fused to Vpu, KGC fused to human tetherin; 293T cells cotransfected with 2.5 µg of each construct; two days later confocal microscopy and flow cytometry, MFI of Kusabira green normalised to the MFI of tetherin

Question: How did the binding turn out when “SIVcpz EK505 Vpu fused to the N-terminal fragment of Kusabira green (KGN) (from UniProt Q1A244 1-79)” was run?
Answer: no binding
